Laboratory results as given in PubChem BioAssay AID504467 (National Center for Advancing Translational Sciences (NCATS), 2011).
Hit rate of the full screen: of about 330,000 compounds, about 7,700 (2.3%) were called active. The inconclusive results got no clear call from the source; some entries with a clear call stand among them for comparison. Calls follow the shape of the dose curve; as a rule, active = well fitted inhibition curve with a large enough effect; inconclusive = small, poorly fitted or top-dose-only effect, or effect the other way; inactive = flat fitted curve, though single readings scatter. Potencies beside an inconclusive call are fits to weak or partial responses and may not hold up.

Experiment: qHTS screen for small molecules that inhibit ELG1-dependent DNA repair in human embryonic kidney (HEK293T) cells expressing luciferase-tagged ELG1; also: nearly all actives have a fitted effect of over 55% in size
Conditions: HEK293T ELG1-luciferase reporter, luminescence, 16 h, DNA damage induced by 5-fluorouridine; activity change, negative = inhibition: at 46.1 µM (top of the series)
Method in brief: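 In this reporter screen, reduction of luminescence relative to DMSO vehicle indicated activity. Compounds and 5-fluorouridine were added together to 2,000 cells per well, incubated for 16 hr at 37 °C, then developed with ONE-Glo.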
% is scaled to controls: 0 for no effect and ±100 for the full control effect; potency is read from the fitted curve at half-maximal effect.

SMILES | Potency | activity change, negative = inhibition
CC(C)CCN1CCN(CC(c2ccccc2)c2ccccc2)CC1CCO (centres undefined) | inactive | 
COc1ccc(N/C=C/C(=O)c2ccccc2)cc1 |  | inconclusive: 130% [activator]
Cc1ccc(S(=O)(=O)N(CC2CO2)c2ccccc2[N+](=O)[O-])cc1 (centres undefined) | inconclusive: 29.1 µM [activator, single point] | 
COC(=O)c1ccccc1NC(=O)CSc1nc(NC(=O)c2ccccc2)c2c(C)c(C)oc2n1 | inconclusive: 20.6 µM [inhibitor, partial curve, poor fit] | 
O=C(Nc1ccc(Cl)c(Cl)c1)Nc1ccc(N2CCCC2)c(S(=O)(=O)Nc2ccccc2Cl)c1 | inconclusive: 5.8 µM [inhibitor, single point] | 
COc1ccc(CCNC(=O)c2cc3c(=O)n4ccccc4nc3n(C3CCCCC3)c2=N)cc1OC | inconclusive: 29.1 µM [inhibitor, single point] | 
Cc1ocnc1C(=O)Nc1ccc(Cl)cc1 | inconclusive: 20.6 µM [activator, partial curve] | 
CCC1CCCCN1c1nc(-c2cccc(OC)c2O)nc2ccccc12 (centres undefined) | inconclusive: 14.6 µM [inhibitor, partial curve, poor fit] | 
CCn1cc(CN2CCC(C(=O)Nc3ccc(Oc4ccccc4)nc3)CC2)cn1 | inactive | 
CC1CCCCN1CC(=O)NC(c1ccccc1)c1ccccc1 (centres undefined) | inactive | 
O=C(CSc1nncc2ccccc12)Nc1ccccc1 | inactive | 
Cc1nn(-c2ccccc2)c(Cl)c1C(=O)OCC(=O)NCCc1ccc(S(N)(=O)=O)cc1 | inconclusive: 18.3 µM [inhibitor, single point] | 
COc1cc(/C=N/NC(=O)C(=O)NCc2cccnc2)cc(OC)c1OC | inconclusive: 18.4 µM [activator, single point] | 
Cc1ccc(C(=O)NCC(=O)Nc2ccc3c(c2)OCCO3)cc1 | inconclusive: 23.1 µM [activator, single point] | 
O=C(COc1cc(Cl)c(Cl)cc1Cl)Nc1cccc(O)c1 | inconclusive: 8.2 µM [activator, partial curve] | 
CC(C)OC(=O)Cn1c(-c2ccccc2)c(-c2ccccc2)nnc1=O | inactive | 
Cc1ccc(OCCn2cnc3c(N)ncnc32)cc1 | inconclusive: 23.1 µM [activator, single point] | 
CCc1ccc(NC(=O)C(C)Sc2nnc(CN3CCCC3)o2)cc1 (centres undefined) | inactive | 
CCOc1cc(N2CCOCC2)c(OCC)cc1NC(=O)Cc1cccc2ccccc12 | active: 18.4 µM | 
CCOc1ccc(Nc2cc(C)c3ccccc3n2)cc1 | inconclusive: 14.6 µM [activator, partial curve] | 
Cc1ccccc1OCC(=O)NCCN(C)C | inconclusive: 32.6 µM [inhibitor, partial curve, poor fit] | 
COc1ccc2c(c1)Cc1sc(NC(=O)c3ccco3)nc1-2 | inconclusive: 2.82 µM [activator, full curve, poor fit] | 

SMILES | Potency | activity change, negative = inhibition
COC(=O)c1ccc2nc(Nc3nc4c(F)cc(F)cc4s3)sc2c1 | inconclusive: 2.31 µM [activator, partial curve] | 
COc1ccc(CNCC(O)COc2ccc(C(C)(C)c3ccccc3)cc2)cc1 (centres undefined) | inactive | 
COc1ccc(C(=O)Nc2ccc(Cl)cc2C(=O)NCc2ccco2)cc1 | inconclusive: 6.51 µM [inhibitor, single point] | 
CC(C)C[C@@H](CSc1ccccc1)N1CCN(CC(C)C)CCC1=O | inconclusive: 3.66 µM [activator, full curve] | 
COc1ccc(Cn2c(=O)c3[nH]cnc3n(-c3ccccc3C)c2=O)cc1 | inactive | 
CCOC(=O)Cn1cnc2c(cnn2-c2ccc(OC)cc2)c1=O | inconclusive: 16.4 µM [activator, single point] | 
Cc1cc(Cl)ccc1OC(C)C(=O)NN1C(=O)c2ccccc2C1=O (centres undefined) | inconclusive: 23.1 µM [activator, single point] | 
COc1ccc(/C=C2\SC(=O)N(CCNC(=O)C3=COCCO3)C2=O)cc1 | inconclusive: 10 µM [activator, partial curve, poor fit] | 
O=C(CN1C(=O)CCC1=O)NNc1ccc2ccccc2c1 | inactive | 
Cc1ccc(NC(=S)NCc2ccccc2)cc1S(=O)(=O)N1CCCCC1 | inconclusive: 20.6 µM [inhibitor, single point] | 
CN(C)S(=O)(=O)c1cccc(C(=O)Nc2ccc(Cl)cn2)c1 | inconclusive: 2.59 µM [activator, partial curve] | 
CSCCC1NC2(C(=O)Nc3c(C)cc(Cl)cc32)[C@@H]2C(=O)N(C3CCCC3)C(=O)[C@H]12 (some centres undefined) | inconclusive: 20.6 µM [inhibitor, single point] | 
COc1ccc(CN2CCN(C(=O)c3cccs3)CC2)c(OC)c1OC | active: 20.6 µM | 
CN1C(=O)/C(=C\c2ccc(N(C)C)cc2)OC1=S | inconclusive: 18.3 µM [activator, single point] | 
COc1ccccc1N(C(=O)c1snc(C(N)=O)c1N)C(C(=O)NCCC(C)C)c1ccco1 (centres undefined) | inactive | 
CCCc1ccc(OCCNC(=O)c2ccco2)cc1 | inconclusive: 20.6 µM [activator, partial curve] | 
O=C(CN1CCCN(S(=O)(=O)c2ccc(Br)cc2)CC1)Nc1ccc2c(c1)OCO2 | inconclusive: 29.1 µM [inhibitor, single point] | 
N#C/C(C(=O)c1ccccc1)=C1/CCCN1 | inconclusive: 18.4 µM [activator, partial curve] | 
O=C1NC(=S)N/C1=C/c1cc([N+](=O)[O-])ccc1O | inactive | 
COc1ccccc1CNS(=O)(=O)c1ccc2c(c1)NC(=O)CS2 | inconclusive: 7.3 µM [inhibitor, partial curve] | 
CC(C)(C)NC(=O)C(=O)NNC(=O)c1cccc([N+](=O)[O-])c1 | inconclusive: 23.1 µM [activator, partial curve] | 
CCOC(=O)C1(Cc2cccc(OC)c2)CCN(Cc2cccc(OCC)c2O)CC1 | inconclusive: 20.6 µM [inhibitor, single point] | 

Given with each value named: entries from further up.
COc1ccc(CNCC(O)COc2ccc(C(C)(C)c3ccccc3)cc2)cc1 (centres undefined)
  Potency: inactive
COc1ccc(C(=O)Nc2ccc(Cl)cc2C(=O)NCc2ccco2)cc1
  Potency: inconclusive: 6.51 µM [inhibitor, single point]
CC(C)C[C@@H](CSc1ccccc1)N1CCN(CC(C)C)CCC1=O
  Potency: inconclusive: 3.66 µM [activator, full curve]
